Data as given in PubChem BioAssay AID504808 (Drosophila RNAi Screening Center, 2011).
In all, the deposit lists about 21,000 reagents; shown is a random part of those with a known target gene and a result. In the full data, 18 (0.084%) were called active. 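Raw counts without plate normalisation, one of two replicates; the ratio scores behind the calls were not deposited.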 A plus sign joins genes that one reagent is predicted to hit. The record does not give: the amount of reagent, the time to read-out.

Aim: 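Genes whose loss lifts activity of an E2F-responsive reporter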 (primary screen)
System: Drosophila S2 cells
Knock-down reagent: long dsRNA against Drosophila genes
Measurement: 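Firefly luciferase driven by E2F sites, normalised to Renilla luciferase on the same minimal promoter, measured by plate reader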
Reading the numbers: E2F firefly: higher = more E2F reporter activity; Renilla normaliser: higher = more normaliser reporter signal
Hit rule: 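Called active if the normalised E2F reporter went up by over 50%; the cutoff is arbitrary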

no.	gene	dsRNA	E2F firefly, rep 1	Renilla normaliser, rep 1	Call
1	Rok (Rho kinase)	DRSC20277	1.93e5	6279	inactive
2	CG14507	DRSC14859	1.10e5	5327	inactive
3	CG3106	DRSC18279	7810	744	inactive
4	O-fut1 (O-fucosyltransferase 1)	DRSC06138	2599	220	inactive
5	CG14445	DRSC17938	96977	5511	inactive
6	CG6424	DRSC05936	63206	3236	inactive
7	twr (twisted bristles roughened eye)	DRSC12491	1.37e5	7166	inactive
8	CG6678	DRSC16092	74597	3316	inactive
9	RpL37-1 (Ribosomal protein L37-1)	DRSC20149	1.53e5	6279	inactive
10	CadN2 + CG42830	DRSC03062	96470	4469	inactive
11	CadN2 + CG42830	DRSC03063	97083	4048	inactive
12	CadN2 + CG42830	DRSC03064	1.04e5	3945	inactive
13	E(spl)mdelta-HLH (Enhancer of split mdelta, helix-loop-helix)	DRSC16698	1.28e5	7324	inactive
14	CG42457 (retired record) + cpo	DRSC13273	77299	2919	inactive
15	CG42457 (retired record) + cpo	DRSC14503	50437	4176	inactive
16	CG42457 (retired record) + cpo	DRSC15327	1.02e5	4650	inactive
17	CG42457 (retired record) + cpo	DRSC16926	59467	3589	inactive
18	CG12016 + Dpm2	DRSC08224	75263	3543	inactive
19	l(2)k10201 (lethal (2) k10201)	DRSC06439	1.48e5	5579	inactive
20	l(2)k10201 (lethal (2) k10201)	DRSC07640	1.63e5	5836	inactive
21	Ifrd1 (Interferon-related developmental regulator 1)	DRSC00415	1.47e5	4887	inactive
22	Ifrd1 (Interferon-related developmental regulator 1)	DRSC00566	1.50e5	4945	inactive
23	CG9356	DRSC16476	63609	3669	inactive
24	e (ebony)	DRSC16936	67981	3557	inactive
25	Nup205 (Nucleoporin 205kD)	DRSC19432	1.39e5	5281	inactive
26	bchs (blue cheese)	DRSC03126	1.30e5	4394	inactive
27	Gr47b (Gustatory receptor 47b)	DRSC05275	1.24e5	5078	inactive
28	CG13310	DRSC09981	99550	4010	inactive
29	DUBAI + Tmem18	DRSC05344	1.31e5	5309	inactive
30	Tmem43 (Transmembrane protein 43)	DRSC10964	82916	3614	inactive
31	Cdk7 (Cyclin-dependent kinase 7)	DRSC18451	30219	3044	inactive
32	Polr3C (RNA polymerase III subunit C)	DRSC14490	71137	3887	inactive
33	Hph (HIF prolyl hydroxylase)	DRSC12164	72881	2944	inactive
34	Hph (HIF prolyl hydroxylase)	DRSC12251	1.04e5	4525	inactive
35	SerRS-m (Seryl-tRNA synthetase, mitochondrial)	DRSC14096	1.16e5	6726	inactive
36	Zcchc7 (Zinc finger CCHC-type containing 7)	DRSC11099	67894	3404	inactive
37	CG7024	DRSC18414	1.23e5	6381	inactive
38	krimp (krimper)	DRSC06578	64690	3842	inactive
39	PI31 (Proteasome inhibitor 31 kDa)	DRSC07306	3905	29	inactive
40	CG8192	DRSC07101	59702	2840	inactive
41	ksh (kish)	DRSC19554	1.27e5	6606	inactive
42	blo (bloated)	DRSC05937	2892	252	inactive
43	park (parkin)	DRSC11618	78023	3699	inactive
44	Or85f (Odorant receptor 85f)	DRSC16769	1.33e5	6157	inactive
45	CG3199	DRSC15467	97529	6512	inactive
46	Iris	DRSC00663	81183	3500	inactive
47	CG4575 (retired record)	DRSC18372	1.05e5	5650	inactive
48	Nbr (Nibbler)	DRSC03166	72294	3535	inactive
49	Cyt-c-p (Cytochrome c proximal)	DRSC03310	1.02e5	4606	inactive
50	CG32579	DRSC19872	1.60e5	6623	inactive

Part of the list above, reformatted.
| gene | dsRNA | E2F firefly, rep 1 | Renilla normaliser, rep 1 | Call |
| --- | --- | --- | --- | --- |
| CG42457 (retired record) + cpo | DRSC15327 | 1.02e5 | 4650 | inactive |
| CG42457 (retired record) + cpo | DRSC16926 | 59467 | 3589 | inactive |
| CG12016 + Dpm2 | DRSC08224 | 75263 | 3543 | inactive |
| l(2)k10201 (lethal (2) k10201) | DRSC06439 | 1.48e5 | 5579 | inactive |
| l(2)k10201 (lethal (2) k10201) | DRSC07640 | 1.63e5 | 5836 | inactive |
| Ifrd1 (Interferon-related developmental regulator 1) | DRSC00415 | 1.47e5 | 4887 | inactive |
| Ifrd1 (Interferon-related developmental regulator 1) | DRSC00566 | 1.50e5 | 4945 | inactive |
| CG9356 | DRSC16476 | 63609 | 3669 | inactive |
| e (ebony) | DRSC16936 | 67981 | 3557 | inactive |
| Nup205 (Nucleoporin 205kD) | DRSC19432 | 1.39e5 | 5281 | inactive |
| bchs (blue cheese) | DRSC03126 | 1.30e5 | 4394 | inactive |
| Gr47b (Gustatory receptor 47b) | DRSC05275 | 1.24e5 | 5078 | inactive |
| CG13310 | DRSC09981 | 99550 | 4010 | inactive |
| DUBAI + Tmem18 | DRSC05344 | 1.31e5 | 5309 | inactive |

Next records follow:
no.	gene	dsRNA	E2F firefly, rep 1	Renilla normaliser, rep 1	Call
51	Fbw5 (F-box and WD repeat domain containing 5)	DRSC03146	1.47e5	4862	inactive
52	CG15128	DRSC06550	1.40e5	4151	inactive
53	to (takeout)	DRSC17086	96305	5172	inactive
54	CG9801	DRSC16568	75280	3318	inactive
55	CG12241	DRSC14481	63256	3194	inactive
56	CG6216	DRSC10606	1.24e5	6980	inactive
57	Eig71Eh	DRSC11155	1.62e5	7552	inactive
58	CG6294 + CG6299	DRSC19980	2.37e5	7312	inactive
59	Vps8 (Vacuolar protein sorting 8)	DRSC09705	85397	3868	inactive
60	Arfrp1 (ADP-ribosylation factor related protein 1)	DRSC18417	7848	764	inactive
61	CG13010	DRSC19529	1.38e5	6876	inactive
62	CG32829	DRSC00961	1.40e5	5213	inactive
63	ocn (ocnus)	DRSC17020	1.23e5	6039	inactive
64	Vha36-1 (Vacuolar H[+] ATPase 36kD subunit 1)	DRSC07098	66756	3339	inactive
65	CG14488	DRSC06460	1.45e5	5132	inactive
66	CG34457	DRSC06924	1.41e5	5516	inactive
67	RhoGAP71E (Rho GTPase activating protein at 71E)	DRSC10232	69904	3416	inactive
68	RhoGAP71E (Rho GTPase activating protein at 71E)	DRSC10837	1.08e5	5153	inactive
69	RhoGAP71E (Rho GTPase activating protein at 71E)	DRSC10838	71132	3424	inactive
70	CG12155	DRSC17826	7645	740	inactive
71	CG15262	DRSC01975	99181	4660	inactive
72	mrva (minerva)	DRSC11009	66203	3360	inactive
73	scpr-A + scpr-C + scpr-B	DRSC15715	1.48e5	6680	inactive
74	Idgf6 (Imaginal disc growth factor 6)	DRSC07360	75280	3283	inactive
75	Cpr65Az (Cuticular protein 65Az)	DRSC09882	1.14e5	4002	inactive
76	Bka (Bekka)	DRSC02757	1.47e5	5999	inactive
77	CG33233	DRSC08239	1.02e5	4359	inactive
78	GstE3 (Glutathione S transferase E3)	DRSC06673	1.34e5	5248	inactive
79	ATPsynGL (ATP synthase, subunit G-like)	DRSC03027	1.37e5	4905	inactive
80	CG11406	DRSC04010	1.28e5	5697	inactive
81	CG11406	DRSC04108	1.24e5	4685	inactive
82	Ae2 (Anion exchanger 2)	DRSC08997	49622	3334	inactive
83	Ae2 (Anion exchanger 2)	DRSC10969	70266	3228	inactive
84	PAN2 (Poly(A)-binding protein-dependent poly(A) ribonuclease 2)	DRSC07115	3549	133	inactive
